The values that follow come from US20040170622A1, “Methods and compositions for modulating XBP-1 activity” (President and Fellows of Harvard College, priority 2002, published 2004).

Sequences of proteins named here, by UniProt entry; tags and fusion partners are left off. Residues count along the entry.
UniProt P18850, residues 1-373: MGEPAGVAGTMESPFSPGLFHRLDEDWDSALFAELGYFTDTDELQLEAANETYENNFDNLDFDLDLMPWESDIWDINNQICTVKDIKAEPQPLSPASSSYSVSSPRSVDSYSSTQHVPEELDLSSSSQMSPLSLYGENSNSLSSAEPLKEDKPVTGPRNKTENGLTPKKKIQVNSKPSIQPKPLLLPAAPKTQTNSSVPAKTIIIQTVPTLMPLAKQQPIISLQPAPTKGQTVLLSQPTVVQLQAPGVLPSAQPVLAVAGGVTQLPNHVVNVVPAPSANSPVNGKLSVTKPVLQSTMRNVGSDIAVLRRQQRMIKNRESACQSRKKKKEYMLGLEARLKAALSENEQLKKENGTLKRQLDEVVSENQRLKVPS

Results are given in words; binding and its absence hold for the method and conditions named. Binding seen in cells or lysates may run through a third protein. Some results given as binding are weak or reduced against the parent protein; the word gives no strength.

Experiment [1] concerns the target HA-tagged ATF6α (1-373) (UniProt P18850). The experiment is described as follows: co-immunoprecipitation from 293-T cells overexpressing HA-tagged ATF6α (1-373) and XBP-1s.
The target is the same in experiment [2]. The experiment can be described thus: co-immunoprecipitation from cotransfected 293T cells (anti-HA IP, anti-XBP-1 immunoblot). On the technique in general: A western blot detects proteins with antibodies after separation by electrophoresis.
For experiment [3] the target is unchanged. The experiment can be described thus: co-immunoprecipitation from transfected 293T cells.
Experiment [4] concerns the target T1, XBP-1s (spliced form of murine XBP-1 protein, 371 aa) (mouse) (UniProt O35426).
T1 sequence (looked up): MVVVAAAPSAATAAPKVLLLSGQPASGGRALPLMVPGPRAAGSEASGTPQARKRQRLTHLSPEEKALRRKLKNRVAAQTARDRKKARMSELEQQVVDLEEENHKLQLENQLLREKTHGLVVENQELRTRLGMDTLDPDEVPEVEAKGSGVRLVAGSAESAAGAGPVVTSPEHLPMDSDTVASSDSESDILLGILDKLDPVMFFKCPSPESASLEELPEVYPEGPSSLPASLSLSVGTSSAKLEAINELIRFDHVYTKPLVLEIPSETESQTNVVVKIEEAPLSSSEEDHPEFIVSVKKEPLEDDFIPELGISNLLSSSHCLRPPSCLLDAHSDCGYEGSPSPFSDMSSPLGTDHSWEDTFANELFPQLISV
The experiment is described as follows: co-immunoprecipitation from transfected 293T cells.

B1: XBP-1s (spliced form of murine XBP-1 protein, 371 aa) (protein, mouse, UniProt O35426-2 1-371, looked up)
chain: T1 sequence (looked up)
Regarding B1, the binding entry in the experiment with HA-tagged ATF6α (1-373) [1] and with HA-tagged ATF6α (1-373) [2] was “binds” each time.

B2: dn-XBP (dominant negative XBP-1, N-terminal half, aa 1 to 188, of the XBP-1s protein) (protein, mouse, UniProt O35426-2 1-188, looked up)
chain: MVVVAAAPSAATAAPKVLLLSGQPASGGRALPLMVPGPRAAGSEASGTPQARKRQRLTHLSPEEKALRRKLKNRVAAQTARDRKKARMSELEQQVVDLEEENHKLQLENQLLREKTHGLVVENQELRTRLGMDTLDPDEVPEVEAKGSGVRLVAGSAESAAGAGPVVTSPEHLPMDSDTVASSDSESD
For the molecule B2, the binding result (with HA-tagged ATF6α (1-373) [3]; in experiment [4]) was “binds” in each case.
